# Test results as given in PubChem BioAssay AID1508600 (Functional Genomics Laboratory (NCATS/FGL), 2020).
# Among all 53,000 sequences or so, about 3,700 (7%) were called active.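 How the source made its calls: active means gene knockdowns whose robust z-score for IL-1 alpha signal is at least 2 or at most -2, so actives lie on both sides; inactive means the rest.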 The list shows a part of the results.
# Assay: Components of the Cytosolic LPS Sensing Pathway: Gene Identification via Genome-wide siRNA Screen;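 further: robust z of the log signal after scaling to non-targeting control siRNA wells of the plate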
# Details: RAW264.7 macrophages, IL-1a HTRF, actives lie on both sides, screened at 100 nM (by protocol), cells primed 5 h with Pam3CSK4 first
# Summary of the method: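 Mouse macrophage line RAW264.7 is transfected with siRNA (100 nM final), grown 48h, primed with TLR ligand Pam3CSK4 5 h and given intracellular LipidA 24 h. IL-1a in supernatant is read by HTRF and viability by luminescence.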
row,Sequence,z-score
1,GCGGAGAUGUACACAAAAGTT against Nqo2,inactive: -1.01
2,GGGCACCUUAUACCAUAGATT against Bfar,inactive: 0.345
3,GGAACUGGCCAAGUUUAAATT against Ing3,inactive: 0.653
4,GGAAAAUUACUCCACUUUUTT against R3hdm1,inactive: 1.36
5,GGAUAUGCACUGUUUUCAATT against Nudt16,active: 2.28
6,CCUGUGAGAUAAGCGAAGCTT against Edil3,inactive: 0.458
7,GGAUUGGAUUUCUUAGUUCTT against Myo1c,inactive: -0.285
8,CCACAGUAUCAUGUAACUATT against Il1a,active: -2.23
9,CCAAGGGUAUGUCCAUCAUTT against Gm5154,inactive: 0.408
10,CCCAUUUGAAAUUAGGGUATT against Mief1,inactive: 0.607
11,GGCCUCCAGAAACAACUCGTT against Ndst2,inactive: -1.14
12,GGAGAAGUACAACGCAGCGTT against Wnt7b,inactive: -0.273
13,GGAGACUAUGAAAAAAUCCTT against Anxa1,inactive: -1.13
14,CCAGCUACCAGCUGUUUAATT against Txn1,inactive: -1.2
15,GGACGACUACAACUACUACTT against Slc18a3,inactive: 0.794
16,GCUUCUCAAAUCUAGGAUCTT against Kcnj2,inactive: -0.525
17,GCCAGUCAUCUUUGUAGUCTT against Olfr411,inactive: -0.777
18,GGACAAUUGUCGACUGUUCTT against Thbs3,inactive: -0.206
19,GGUGGUAAAUCGAAUUGUUTT against Tmem185b,inactive: -0.171
20,GCCAGAAUAAACAUUAGUGTT against Ccdc54,inactive: -0.478
21,GGAUGCUGAAGUAAUAGUGTT against Tbc1d15,inactive: 0.0714
22,GGCACCCUCAAGAAAGCGUTT against Nol6,inactive: -1.34
23,GGUCCAAUCGACAACACUATT against Usp33,inactive: 0.359

# An excerpt of the results above, as a working copy:
row,Sequence,z-score
5,GGAUAUGCACUGUUUUCAATT against Nudt16,active: 2.28
6,CCUGUGAGAUAAGCGAAGCTT against Edil3,inactive: 0.458

# Additional records.

row,Sequence,z-score
1,CCUACUAUAGUACCAACCATT against Rnf111,inactive: -0.683
2,GGGAAAAAGCUGGGAAUAUTT against Zbtb38,inactive: -0.721
3,GGAUGACGACUGCACUUACTT against Itgb4,inactive: 1.21
4,GGAGAAUAUUGAGUCCUUCTT against Slc2a5,inactive: 0.525
5,GGUUUCCCUAGGAAAAAACTT against Klk1b9,inactive: -1.73
6,GCAGACCAUGGCCUCAGAUTT against Sh3bp1,inactive: 0.179
7,GGAUUUUAGAAGUAAUGGGTT against Zbtb32,inactive: -0.928
8,GCUGCGCAGUUUAGAAGAGTT against Rab24,inactive: 0.781
9,GGCAUCAUAAAGCCAGGCATT against Sybu,active: -2.42
10,GCUAGAGACGAGAAGAUGATT against Ano10,active: -2.47
11,GCGUAGACUUGAGGACUUATT against Uimc1,inactive: -0.705
12,GGUAGACAAGCUGUUUGAUTT against Meak7,inactive: -0.429
13,GGAACCAAGCCAUGAUUUUTT against Mrgprb2,inactive: 0.646
14,GCUCGUUUACUCUUACACCTT against Lefty2,inactive: 0.966
15,GGGAGCUAAGAAGAUUCAUTT against Mul1,inactive: 0.89
16,CCAUACAAGAGUGACAGUUTT against Olfr810,inactive: -0.736
17,CAGGCAUCGAAACAUUCAUTT against Olfr672,inactive: 1.35
18,GGAAGGAAAAAGGCUUUUGTT against Olfr135,inactive: 1.35
19,GGAUACUUAGUCUUGAAUCTT against Mterf3,inactive: -0.0324
20,GCUGGUGUGUAAUUACGUUTT against Gli1,inactive: 0.378
21,GGCACCUGAGCGAUUUGAUTT against Trmt1,inactive: -1.26
22,GGGCUACAUAACCAUCCGUTT against Bcam,inactive: 0.99
23,CCAGGCAGCUAAACUGUGUTT against Tex11,inactive: -0.11

# Reprinted at random: 3 entries already listed, in no set order.
row,Sequence,z-score
16,CCAUACAAGAGUGACAGUUTT against Olfr810,inactive: -0.736
23,CCAGGCAGCUAAACUGUGUTT against Tex11,inactive: -0.11
7,GGAUUUUAGAAGUAAUGGGTT against Zbtb32,inactive: -0.928

# Next part

row,Sequence,z-score
1,GGAUUUAUCCCAAAAUCUATT against Tmem26,inactive: 0.42
2,GCUAUGUUCACUAUCCCACTT against Alg11,inactive: -1.08
3,GGUGAAGACUGGAACAAGATT against Nalcn,inactive: -0.0705
4,GGAAGAGAGAAUAAGUAUCTT against Robo2,inactive: -0.791
5,CCCUAACUUGGAUAAGCUGTT against Cyb5r1,inactive: -0.352
6,GGCUCCUGUAUCUUGAUGUTT against Zfp418,inactive: 0.436
7,CCGGGAAAUUCUGUUAGCCTT against Pla2g1b,inactive: -1.95
8,CCACAUUUAUGGCUAAAUUTT against Wapl,inactive: 0.164
9,GCCAGCAACCCUCUUCGUUTT against Foxo6,inactive: 0.142
10,GCCGUCUUCCGAAGAAUACTT against Mettl1,inactive: 0.11
11,GGGCAUGUGGAUGACUGAUTT against Gnptg,active: 2.04
12,GAAGACUCGGAAGAAAAUGTT against Prr13,inactive: -0.542
13,GGUUCUCUUGUAAAGAUGUTT against Slco1a1,inactive: -0.238
14,GGUAAUGCUUGAAGAUAAUTT against Ivns1abp,inactive: -1.75
15,CCAAAUGCUUAUCUCUACATT against Dock6,inactive: 0.00388
16,GGGUUUGAGUGCUGUGAAGTT against Ap4s1,active: -2.66
17,GGUGCUUUGAAGUUUUUCATT against Rabgap1l,inactive: 0.181
18,GGAAAUGUGAAAGCUCUGUTT against Ttc34,inactive: -0.718
19,GGUUUGGUUGAAAUUGAACTT against Smc5,inactive: -1.16
20,CGACAUGUAGCUCUGCAUCTT against Tmem25,inactive: -1.05
21,GGAAUUGAAGUCAGAGUUATT against Myoc,inactive: -0.967
22,GGCCUGAACACACUGACAATT against Lrrcc1,inactive: -1.47
